Source: article PMC10819771 (Pharmaceuticals, 2023)
Values joined by “and” are separate entries in the source; they are usually repeats but may differ in a detail not shown here. Identical values can stand only once.

How the values were obtained:
Format in all cases: binding
Conditions in all cases: cooperative if > 4
[1] = system: BCL-2; assay: Native electrospray mass spectrometry, BCL-2
Description: (§1) These parameters ensured a good signal intensity without disrupting noncovalent complexes, which was verified using d[G4T4G4]2 as a control. Oligonucleotides were purchased lyophilized, and RP-cartridge purified from Eurogentec (Kanaka Eurogentec, Seraing, Belgium), then buffer exchanged with ammonium acetate (5 M; Sigma-Aldrich, Saint-Quentin-Fallavier, France) using Amicon Ultra (3 K cut-off; Merck Millipore, Cork, Ireland). Sample solutions were prepared by diluting the proper volume of oligonucleotide stock solutions to reach 10 µM of DNA and 20 µM of ligand, in 100 mM ammonium acetate. The solutions were incubated for 16 h at 4 °C before analysis. Kd were calculated as already described.

[2] = system: human telomeric sequence 24TTG; assay: Native electrospray mass spectrometry, 24TTG
Description: as §1

[3] = system: c-MYC; assay: Native electrospray mass spectrometry, c-MYC
Description: as §1

[4] = system: ds26; assay: Native electrospray mass spectrometry, duplex control ds26
Description: as §1

Row | Compound | Kd1/Kd2 BCL-2 [1] | Kd1/Kd2 24TTG [2] | Kd1/Kd2 c-MYC [3] | Kd1/Kd2 ds26 [4]
1 | CN(C)CCCNCc1ccc(-c2nc(-c3ccc(CNCCCN(C)C)cc3)c3cc(-c4ccccc4)ccc3n2)cc1 [Compound 12b, 2,4-bis{4-[(3-dimethylaminopropyl)aminomethyl]phenyl}-6-phenylquinazoline] | 2.0 | > 4 and 6.3 | 0.1 | 0.1
2 | CN1CCN(CCCCNCc2ccc(-c3nc(-c4ccc(CNCCCCN5CCN(C)CC5)cc4)c4cc(-c5ccccc5)ccc4n3)cc2)CC1 [Compound 12e, 2,4-bis{4-[(4-(4-methylpiperazin-1-yl)butyl)aminomethyl]phenyl}-6-phenylquinazoline] | 2.8 | > 4 and 7.2 | 0.1 | 0.1
3 | CN(C)CCCNCc1ccc(-c2cc(-c3ccc(CNCCCN(C)C)cc3)c3cc(-c4ccccc4)ccc3n2)cc1 [Compound 13a, 2,4-bis{4-[(3-dimethylaminopropyl)aminomethyl]phenyl}-6-phenylquinoline] | 2.1 | 0.5 | 0.1 | 0.2
4 | CN1CCN(CCCCNCc2ccc(-c3cc(-c4ccc(CNCCCCN5CCN(C)CC5)cc4)c4cc(-c5ccccc5)ccc4n3)cc2)CC1 [Compound 13d, 2,4-bis{4-[(4-(4-methylpiperazin-1-yl)butyl)aminomethyl]phenyl}-6-phenylquinoline] | 2.6 | 0.4 | 0.1 | 0.2
